# ± gives the standard deviation. The list shows a part of the results. The uncertainty is large for many entries.
# Tested on: EfPiwi piRISC loaded with L1MC piRNA (26 nt)
# Experiment: pre-steady-state target cleavage rate (min^-1); guide: L1MC piRNA 5'p-UAACUAAAUACUAUGCAAGCUGUAGG; MIWI and MILI are mouse PIWI proteins and EfPiwi is from a freshwater sponge; tags in brackets are library labels; higher = faster piRNA-guided slicing of the target
# In short: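 The method was Cleave-'n-Seq, in which uncleaved targets from a transcribed, DNA-blocked target RNA library were sequenced after exposure to active affinity-purified piRISC carrying one synthetic guide, with or without GTSF1 partner protein. Reactions contained 0.1 nM library, 1 nM piRISC and, where present, 500 nM GTSF1 in HEPES–potassium acetate buffer at 33 °C for 0–8 or 0–960 min. Reads were normalised to depth and to weakly complementary targets, three trials were pooled, and k3 was capped at 0.0001 min^-1. The pre-steady-state cleavage rate came from a burst-and-steady-state fit.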
# [1] = auxiliary factor: 500 nM Ephydatia muelleri Gtsf1
# [2] = auxiliary factor: none (no Gtsf1)
Sequence,pre-steady-state target cleavage rate [1],pre-steady-state target cleavage rate [2]
UCCUGGAACAGGUUGCAUAGUAUUUAGUAA,0.00828 ± 0.0031,0.000789 ± 0.011
UCCUGGAUGUGCUUGCAUAGUAUUUAUGUUA,0.00172 ± 0.0041,0.000311 ± 0.042
UCCUGGAUCAGCUUGCAUAGUAAUUACUUA,0.00233 ± 0.0022,0.00086 ± 0.0093
UCCUGGAUCAGCUUCCAUAGUAUUUACUUA,0.000589 ± 0.0079,0.000187 ± 0.034
UCCUGGAUGAGCUUGCUUAGUAAUUAGUUA,0.00425 ± 0.0027,0.000376 ± 0.028
UCCUGCUAGAGCUUGCUUAGUAUUUAGUUA,0.00554 ± 0.002,0.000982 ± 0.0069
UCCUGGAUGAGCUUGCAUAGUUUUUAGUUA,0.00485 ± 0.002,0.00127 ± 0.0087
UCCUGGAUGUGCUUGCAAAGUAAUUAGUUA,0.00249 ± 0.0041,0.000379 ± 0.023
UCCUGGUACAGCUUGCUAGUAUUUAGUUA,0.00174 ± 0.0061,0.00122 ± 0.0072
UCCUGGAACACGCUUGCAUAGUAUUUAGUUA,0.0331 ± 0.011,0.000745 ± 0.013
UCCUGCUACAGGUUGCAUAGUUUUUAGUUA,0.00998 ± 0.0028,0.0014 ± 0.0085
UCCUGGUACAGCUUGCCUAGUAUUUAGUUA,0.00475 ± 0.0026,0.000908 ± 0.011
UCCUGGAUGUCGAACGUAUGUCUUUAGUUA,< 0.0001,< 0.0001
UCCUGGUACGCUUGCAUAGUAUUUAGUUA,0.00582 ± 0.0027,0.000262 ± 0.05
UCCUGGUACAGCUUGCAUAGUAGUUUAGUUA,0.0074 ± 0.0029,0.00189 ± 0.007
UCCUGGUACAGCAUGCAUACUAUUUAGUUA,0.00483 ± 0.0019,0.00101 ± 0.01
UCCUGGAACAGCUUGGAUAGUUUUUAGUUA,0.00298 ± 0.0022,0.000764 ± 0.012
UCCUGCUACAGCUAGCAUAGUUUUUAGUUA,0.00472 ± 0.0016,0.000547 ± 0.0097
UCCUGGAUCAGCUUGCAUUGUAAUUAGUUA,0.00179 ± 0.0017,0.000427 ± 0.017
UCCUGGAACAGCAUGGAUAGUAUUUAGUUA,0.00527 ± 0.0017,0.000523 ± 0.017

# Part of the list above, tab-delimited.
Sequence	pre-steady-state target cleavage rate [1]	pre-steady-state target cleavage rate [2]
UCCUGGAUGUGCUUGCAUAGUAUUUAUGUUA	0.00172 ± 0.0041	0.000311 ± 0.042
UCCUGGAUCAGCUUGCAUAGUAAUUACUUA	0.00233 ± 0.0022	0.00086 ± 0.0093

# Next part.

Sequence,pre-steady-state target cleavage rate [1],pre-steady-state target cleavage rate [2]
UCCUCCUACAGCUUGCAUACUAUUUAGUUA,0.00904 ± 0.0032,0.00124 ± 0.0066
UCCUGGAUGAGCUUGCAUAGUAUAAUGUUA,0.00166 ± 0.0029,0.000596 ± 0.016
UCCUGGUACAGCUUGCAAAGUUUUUAGUUA,0.00245 ± 0.0024,0.000684 ± 0.0097
UCCUGGUACAGCUUGCAUAGUAUUUAGUAUA,0.00633 ± 0.0024,0.000755 ± 0.02
UCCUGGAUGUCGAACCAUGAGUAUUUAGUUA,0.000404 ± 0.012,0.000467 ± 0.013
UCCUGGUACAGCUUGCAUACUAUUUAGUUA,0.00275 ± 0.0031,0.00025 ± 0.046
UCCUGGUACAGCUUGCAAUAGUAUUUAGUUA,0.00587 ± 0.0028,0.000822 ± 0.012
UCCUGCUUCAGCAUGCAUAGUAUUUAGUUA,0.0186 ± 0.0047,0.000522 ± 0.011
UCCUGGAACAGCUUAGCAUAGUAUUUAGUUA,0.0218 ± 0.0061,0.000477 ± 0.018
UCCUGGUACAGCUUGCAUAGUAUUUAGUGUA,0.00435 ± 0.0027,0.00154 ± 0.0082
UCCUGGAACAGCUUGCAUAGUAUUUAGGUUA,0.00305 ± 0.0027,0.000848 ± 0.013
UCCUGGUACAGCUUGCAUAGUAUUUAGUCA,0.00545 ± 0.0021,0.000355 ± 0.037
UCCUGGUACAGCUAGCAUAGUAUUUAGUAA,0.00365 ± 0.0021,0.000741 ± 0.011
UCCUCCAACAGCUUGCAUAGUAUUAAGUUA,0.00502 ± 0.002,0.000605 ± 0.0088
UCCUGGAUCAGCUUGCAUAGUAUUCUAGUUA,0.000839 ± 0.0096,0.00123 ± 0.0067
UCCUGCUACAGCAUGGAUAGUAUUUAGUUA,0.00804 ± 0.0023,0.000918 ± 0.0066
UCCUGGUACAGCUUGCAUAGUAUUUAGUUUA,0.0765 ± 0.024,0.00213 ± 0.012
UCCUGCUACAGCUUGCAUAGUAUUUAGGUUA,0.00526 ± 0.0014,0.000319 ± 0.019
UCCUGGAUGUCGAAGCAUAGUAUAUACUUA,0.000214 ± 0.016,< 0.0001
UCCUGGAUCAGGUUGCAUUGUAUUUAGUUA,0.00567 ± 0.0021,0.000239 ± 0.034

Sequence,pre-steady-state target cleavage rate [1],pre-steady-state target cleavage rate [2]
UCCUGGUACAGCUUGCAUAGUAUUUAAGUUA,0.00375 ± 0.0039,0.00555 ± 0.0052
UCCUGGUACAGGUUGCAUAGUAUUUAGUUA,0.0211 ± 0.0053,0.000498 ± 0.018
UCCUGGAACAGCUUGCAGAGUAUUUAGUUA,0.012 ± 0.003,0.00133 ± 0.0067
UCCUGGAUCAGCUUGCAUAGUAUUUAUGUUA,0.0559 ± 0.02,0.00163 ± 0.0083
UCCUGGAUGUCGAAGCAUAGUAUUUUCAUA,0.000259 ± 0.0081,0.000458 ± 0.013
UCCUGCUACUGCUUGGAUAGUAUUUAGUUA,0.0111 ± 0.0029,0.00353 ± 0.004
UCCUGGAUGAGCUUGCAUAGUAUAAUCAAA,0.00224 ± 0.0046,0.000371 ± 0.024
UCCUCCUACAGCUUGCAUAGUAUUUAGGUA,0.00476 ± 0.0017,0.000306 ± 0.014
UCCUGGAUGUCGAUGCAUUGUAAUUAGUUA,0.000671 ± 0.0062,0.000255 ± 0.024
UCCUGCUACACCUAGCAUAGUAUUUAGUUA,0.0171 ± 0.0054,0.000844 ± 0.0079
UCCUGGAUGUCGAAGCUUAGUAAUUAGUUA,0.000875 ± 0.0078,0.000171 ± 0.045
UCCUGGAUGUGCUUGCAUAGUAAUUUGUUA,0.000779 ± 0.0044,0.000178 ± 0.037
UCCUGGAUGAGCUUGCAUAGUACUUUAGUUA,0.00806 ± 0.003,0.00423 ± 0.0036
UCCUGGAUGAGGUUGCAUAGUAUUUUGUUA,0.00143 ± 0.0024,0.000748 ± 0.011
UCCUGGAUGUCGAACGUAUGUGAUUUAGUUA,0.000101 ± 0.03,< 0.0001
UCCUGGUACAGCUUGCAUAGUAUCUAGUUA,0.004 ± 0.0021,0.00053 ± 0.016
UCCUGGAUCAGCUUGCAUAGUACUUAGUUA,0.0145 ± 0.0031,0.0113 ± 0.0052
UCCUGGUACACCUUGCAUACUAUUUAGUUA,0.000865 ± 0.0062,0.000273 ± 0.034
UCCUGGAUGAGCUUGCAUAGUAUGUUAGUUA,0.00879 ± 0.0036,0.0026 ± 0.0046
UCCUGGAUCAGCUUGGAUAGUAAUUAGUUA,0.00256 ± 0.0025,0.000125 ± 0.074
